This is one part of the list. These are further read-outs of the screen, such as a control signal, another cell line or another target. No call is given for them. The list favours compounds with an active or inconclusive main result. Potencies come from curve fits of mixed quality, noted in brackets.

The experiment can be described thus: Cell signaling CRE-BLA (Fsk stim). Particulars: CHO CRE-bla reporter (cAMP response element driving beta-lactamase), forskolin EC10, beta-lactamase ratio; measured here: 460 nm blue channel. An outline of the steps:
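AC50 values, positive or negative, reflect shifts in EC10 NKH 477-induced CRE-bla reporter activity in CHO cells. Incubation lasted 3 h at 37 °C before CCF4 substrate (2 h, room temperature) and ratiometric 460/530 nm reading.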
Broadly, the AC50 is the midpoint of the concentration-response curve, whichever way the signal moves. For `COc1cc(C(=O)Nc2ccc(N(C)C)cc2)cc(OC)c1OC`, the AC50 was 15.8 µM [rising, partial curve].

Turning to `CCn1c(COc2cccc(OC)c2)nnc1SCC(=O)Nc1cccc(OC)c1`, the AC50 is 0.00316 µM [falling, full curve, poor fit].

Take `CCN(CC)CCCNc1cc2n(c(=O)n1)CCc1cc(OC)c(OC)cc1-2`: the AC50 is 12.6 µM [rising, partial curve].

As for `COc1cc(C(=O)Nc2ccc(-n3cnnn3)c(C)c2)cc(OC)c1OC`, the concentration at half-maximal activity (AC50) was 12.6 µM [rising, partial curve].

As for `O=C(NC1CCCCC1)c1sc(=S)n2c1[nH]c(=O)c1ccccc12`, the AC50 is 0.126 µM [falling, full curve, poor fit].

With `COc1ccc(C2c3c(-c4cc(Cl)c(C)cc4O)n[nH]c3C(=O)N2Cc2cccnc2)cc1OC` (stereo not drawn), the AC50 was 3.16 µM [rising, partial curve].

On to `O=C1CSC(=O)N1CCOCCN1C(=O)CSC1=O`, for which the AC50 was 3.98 µM [rising, single point].

Regarding `CCCn1c(=O)n(C)c(=O)c2c(SCc3cc(C(C)=O)ccc3OCC)nc(C3CC3)nc21`, the AC50 is 2.51 µM [rising, full curve].

In the case of `NC(=O)CCn1nc(-c2ccccc2)c2ccccc2c1=O`, the AC50 is 10 µM [rising, single point].

As for `Cc1ccc(-c2nnc3ccc(SCC(=O)Nc4cc(C)on4)nn23)cc1`, the AC50 was 10 µM [rising, single point].

As for `Cc1cccc(OCc2nnc(SCC(=O)Nc3ccc(C)c(C)c3)o2)c1`, the AC50 was 0.794 µM [falling, full curve].

Regarding `Cc1ccc(OCC(=O)n2nc(C)cc2C)c(Br)c1`, the AC50 was 0.00316 µM [rising, full curve, poor fit].

`CCOc1ccccc1NC(=O)CC1Nc2cc(C)c(C)cc2NC1=O` (stereo not drawn): the AC50 was 10 µM [rising, partial curve].

As for `CC1C2CC(C(CN(C)C)/C2=N/O)C1(C)C` (stereo not drawn), the concentration at half-maximal activity (AC50) is 0.00316 µM [falling, full curve].

Consider `COCc1c(C(=O)OCc2nc(N)nc(Nc3ccccc3C)n2)oc2ccccc12`, for which the AC50 is 10 µM [rising, partial curve].

`Brc1cc2c(cc1Cn1c(-c3cncs3)nc3ccccc31)OCO2`: the AC50 is 2 µM [rising, full curve].

In the case of `COc1cccc(NC(=O)N2CCC(N3CCCCC3)CC2)c1`, the AC50 was 15.8 µM [falling, partial curve].

`COc1ccc(N2CCN(C(=O)C3CCCN(S(=O)(=O)c4cccc5cccnc45)C3)CC2)cc1` (stereo not drawn): the AC50 was 15.8 µM [falling, single point].

As for `COc1cc(NC(=O)c2ccccc2Cl)c(OC)cc1NC(=O)CN1CCOCC1`, the AC50 is 7.94 µM [rising, single point].

For `O=C(CN1CCc2ccccc2C1)Nc1ccccc1N1CCCCCC1`, the AC50 was 12.6 µM [rising, partial curve].

Take `O=C(CN1C(=O)C2C3C=CC(C3)C2C1=O)N1CCc2ccccc2C1` (stereo not drawn): the AC50 was 0.00398 µM [falling, full curve, poor fit].

Take `CC1(C)Cc2c(c(-c3ccco3)nc3n[nH]c(N)c23)CO1`: the AC50 was 12.6 µM [rising, partial curve].

On to `Cc1ccccc1-n1c(SC/C(O)=C(\C#N)c2nc3ccccc3[nH]2)nnc1-c1ccncc1`, for which the AC50 is 15.8 µM [rising, single point].

Consider `COc1ccc(-n2nnnc2SCC#CCO)cc1`, for which the AC50 was 31.6 µM [falling, partial curve, poor fit].

As to `COc1cc(C2Nc3cc(Cl)c(S(N)(=O)=O)cc3S(=O)(=O)N2)cc(OC)c1OC` (stereo not drawn), the AC50 was 5.01 µM [rising, single point].

As for `CC(C)=C1C2C=CC1C(C(=O)Nc1cc(C)ccc1C)C2C(=O)O` (stereo not drawn), the concentration at half-maximal activity (AC50) was 0.00316 µM [falling, full curve, poor fit].

For `CCOC(=O)c1c(N)sn(-c2ccccc2C)c1=S`, the concentration at half-maximal activity (AC50) is 2 µM [rising, full curve].

Consider `CCN(Cc1cc2cc(OC)ccc2[nH]c1=O)C(=O)c1ccncc1`, for which the AC50 was 15.8 µM [rising, single point].

On to `Cc1ccc(Cn2c(NCCc3ccccc3)nc3c2c(=O)n(C)c(=O)n3C)cc1`, for which the AC50 is 3.98 µM [rising, full curve].

For the compound `OC(COc1ccc(Cl)cc1)CN1CCCCC1` (stereo not drawn), the AC50 is 0.00631 µM [falling, full curve, poor fit].

In the case of `COc1ncc2nc(-c3cn(C)c4ccccc34)c(=O)n(CCc3ccccc3)c2n1`, the AC50 was 1 µM [rising, full curve].

For `CCCCCSc1nc2c(c(=O)[nH]c(=O)n2C)n1C(C)C`, the AC50 is 10 µM [rising, partial curve].

Turning to `COc1ccc(-c2nc3cnc(N4CCN(C)CC4)nc3n(Cc3cccc(OC)c3)c2=O)cc1`, the AC50 is 1.26 µM [rising, full curve].

Turning to `COCCN1Cc2cccc(C(=O)Nc3cccc(OC)c3)c2C1=O`, the AC50 was 0.126 µM [rising, full curve].

With `COc1ccccc1C(=O)Nc1c2c(nn1-c1cccc(C)c1C)CS(=O)C2` (stereo not drawn), the AC50 was 10 µM [rising, partial curve].

On to `CCCCCCn1c(-c2ccco2)nc2oc3cc(OC)ccc3c(=O)c2c1=O`, for which the AC50 is 1.58 µM [rising, full curve].

`O=C(CCCn1c(=S)[nH]c2ccccc2c1=O)N1CCCCC1`: the AC50 was 10 µM [rising, partial curve].

As for `Cn1c(NCc2ccco2)nc2ccccc21`, the AC50 is 5.01 µM [falling, full curve].

For `COc1ccc(C)cc1NC(=O)Cn1cnc2sc(C)c(S(=O)(=O)N3CCOCC3)c2c1=O`, the AC50 was 12.6 µM [rising, single point].

Turning to `COc1ccc(CCn2c(C)cc3c(c2=O)C(c2ccncc2)C(C#N)=C(N)O3)cc1OC` (stereo not drawn), the AC50 is 0.631 µM [rising, full curve, poor fit].

Turning to `O=C(c1cccc(C(=O)N2CCc3ccccc32)n1)N1CCc2ccccc21`, the half-maximal activity concentration (AC50) is 2.51 µM [rising, full curve, poor fit].

On to `COc1ccc2[nH]cc(CCNc3ccnc(-c4cccc(C#N)c4)n3)c2c1`, for which the AC50 was 5.01 µM [falling, single point].

Regarding `Clc1cccc(Cl)c1NC1=NCCN1`, the AC50 was 31.6 µM [falling, single point].

Values taken from PubChem BioAssay AID662 (National Center for Advancing Translational Sciences (NCATS), 2007).
